According to US20100021918A1, “METHOD FOR ASSAYING ACTION OF ANTITUMOR AGENT USING SPLICING DEFECTS AS INDEX” (Eisai R&D Management Co., Ltd., priority 2007, published 2010):
Further values from the same series stand in other lists.

Test system: human colon carcinoma cell strain WiDr
Assay: Microarray analysis (2), reviewed conditions, intron expression, Table 3
Format: cell-based
Method: WiDr cells were first suspended in RPMI1640 medium (containing 10% FBS, penicillin, and streptomycin) and seeded in a 10 cm dish (2×10^6 cells/dish). After an overnight culture in an incubator with 5% carbon dioxide gas at 37° C., the medium was changed with medium containing 14 nM of (8E,12E,14E)-7-((4-cycloheptylpiperazin-1-yl)carbonyl)oxy-3,6,16,21-tetrahydroxy-6,10,12,16,20-pentamethyl-18,19-epoxytricosa-8,12,14-trien-11-olide or containing vehicle alone. After cultured for additional six hours, TRI reagent (SIGMA) were added to the cells and the cells were harvested. RNA was purified in accordance with the protocol of TRI reagent, followed by further purification with RNeasy (QIAGEN). Absorbance at 260 nm was measured to quantify an amount of RNA. This experiment was repeated three times and RNA samples (n=3) were prepared.
Ribosomal RNA was removed from 1 μg of each total RNA of control cells (n=3) and cells with the treatment (n=3) by using RiboMinus Human/Mouse Transcriptome Isolation Kit (Invitrogen). Single stranded cDNA synthesis, double stranded cDNA synthesis, cRNA synthesis, second single stranded cDNA synthesis, cDNA fragmentation, and cDNA labeling in order were carried out for the total RNA from which ribosomal RNA was removed, by using GeneChip Whole Transcript Sense Target Labeling and Control Reagents (Affymetrix) to make a cDNA probe. The cDNA probe was used for hybridization with Human Exon 1.0 ST Array (Affymetrix). The array was washed and stained, and luminescence intensity was measured by a scanner.
Analysis conditions were reviewed in the data used in Example 3. Genes containing increased introns upon treatment with (8E,12E,14E)-7-((4-cycloheptylpiperazin-1-yl)carbonyl)oxy-3,6,16,21-tetrahydroxy-6,10,12,16,20-pentamethyl-18,19-epoxytricosa-8,12,14-trien-11-olide were identified.
In order to consider the analysis conditions, variations in the data from the samples with identical conditions were studied. […] It turned out that, by analyzing under conditions where the expression level was more than 100 and change in the expression level was more than five times, a probe set with increased expression can be extracted.
Probe sets showing that the normalized change in the level expression of the probe set in the group with the treatment was more than 5 times; the expression level of the probe set and the gene in the group with the treatment were more than 100; and probe set annotation was “extended, full, free”, were picked out. Welch's t-test was conducted with the probe sets extracted for the treated group and the control group to determine a p and q value. A gene containing the probe sets with the q value of less than 5% was determined as a candidate gene with increased expression level of the intron regions (Table 3).
In Table 3, for each gene evaluated, gene name (Gene Name), abbreviated name (Gene Symbol), accession number (Accession), alias name (Synonym), transcription cluster number in Human Exon 1.0 ST Array (Human Exon 1.0 ST Array Transcript Cluster ID), chromosome number (Chromosome), type of strand (Strand), start region (Start), stop region (Stop), and change in expression level (Fold Change) were respectively shown.

Q: What does the source list for `CCC(O)C(C)C1OC1CC(C)(O)/C=C/C=C(\C)C1OC(=O)CC(O)CCC(C)(O)C(OC(=O)N2CCN(C3CCCCCC3)CC2)/C=C/C1C` (stereo not shown) [E7107, (8E,12E,14E)-7-((4-cycloheptylpiperazin-1-yl)carbonyl)oxy-3,6,16,21-tetrahydroxy-6,10,12,16,20-pentamethyl-18,19-epoxytricosa-8,12,14-trien-11-olide]?
A: Fold Change (gene RBM23 // C9orf102, Transcript Cluster ID 3556888, intron expression, treated vs control): 9.18; Fold Change (gene RBM25, Transcript Cluster ID 3543411, intron expression, treated vs control): 10.23; Fold Change (gene RBM26, change in expression level, treated vs control): 21.52; Fold Change (gene RBM39, intron expression, treated vs control): 7.35; Fold Change (gene RBMS2, Transcript Cluster ID 3417583, intron expression, treated vs control): 9.78; Fold Change (gene RCP9, Transcript Cluster ID 3005332): 5.15; Fold Change (gene RFWD3, intron expression, treated vs control): 6.68; Fold Change (gene RGS3, intron expression, treated vs control): 6.71; Fold Change (gene RIC8A, Transcript Cluster ID 3315512, intron expression, treated vs control): 9.52; Fold Change (gene RIF1, change in expression level, treated vs control): 18.85; Fold Change (gene RIOK3, change in expression level, treated vs control): 13.87; Fold Change (gene RNF40, change in expression level, treated vs control): 11.42; Fold Change (gene RNF138, Transcript Cluster ID 3783749): 5.26; Fold Change (gene RNMTL1, Transcript Cluster ID 3705539, intron expression, treated vs control): 10.45; Fold Change (gene RPL8, change in expression level, treated vs control): 6.11; Fold Change (gene RPL18, intron expression, treated vs control): 7.29; Fold Change (gene RPL30, intron expression, treated vs control): 7.31; Fold Change (gene RPLP0-like // RPLP0, Transcript Cluster ID 3474344): 5.44; Fold Change (gene RPS15A, Transcript Cluster ID 3683018): 5.07; Fold Change (gene RPUSD4, intron expression, treated vs control): 6.76; Fold Change (gene RQCD1 // PLCD4, change in expression level, treated vs control): 6.24; Fold Change (gene RRM2, Transcript Cluster ID 2469252, intron expression, treated vs control): 10.35; Fold Change (gene RSL1D1, Transcript Cluster ID 3680583): 5.22; Fold Change (gene RSPRY1, Transcript Cluster ID 3662612, intron expression, treated vs control): 10.87; Fold Change (gene RTN4, Transcript Cluster ID 2553576): 5.15; Fold Change (gene SAAL1, Transcript Cluster ID 3365249): 5.45; Fold Change (gene SBNO1, change in expression level, treated vs control): 17.44; Fold Change (gene SCYL2, change in expression level, treated vs control): 6.12; Fold Change (gene SDCCAG10, change in expression level, treated vs control): 6.15; Fold Change (gene SEC14L1, intron expression, treated vs control): 7.45; Fold Change (gene SEC24B, change in expression level, treated vs control): 6.24; Fold Change (gene SEC61G, Transcript Cluster ID 3051395): 5.19; Fold Change (gene SEH1L, change in expression level, treated vs control): 6.17; Fold Change (gene SENP3, intron expression, treated vs control): 6.82; Fold Change (gene SENP5, change in expression level, treated vs control): 5.94; Fold Change (gene SERBP1, Transcript Cluster ID 2417174, intron expression, treated vs control): 9.26; Fold Change (gene SET, change in expression level, treated vs control): 6.12; Fold Change (gene SETD2, Transcript Cluster ID 2672532): 5.09; Fold Change (gene SETD5, Transcript Cluster ID 2609608, intron expression, treated vs control): 9.36; Fold Change (gene SETX, intron expression, treated vs control): 7.00; Fold Change (gene SF1, intron expression, treated vs control): 6.69; Fold Change (gene SF3A3, Transcript Cluster ID 2407439): 5.11; Fold Change (gene SF3B1, Transcript Cluster ID 2593670, intron expression, treated vs control): 9.52; Fold Change (gene SF3B2, intron expression, treated vs control): 7.14; Fold Change (gene SF3B4, Transcript Cluster ID 2434159): 5.05; Fold Change (gene SFPQ, Transcript Cluster ID 2406064, intron expression, treated vs control): 9.80; Fold Change (gene SFRS1, Transcript Cluster ID 3764103, intron expression, treated vs control): 10.37; Fold Change (gene SFRS3, change in expression level, treated vs control): 11.05; Fold Change (gene SFRS5, Transcript Cluster ID 3542207, intron expression, treated vs control): 9.42; Fold Change (gene SFRS6, Transcript Cluster ID 3886050): 5.21; Fold Change (gene SFRS11, intron expression, treated vs control): 7.12; Fold Change (gene SFRS15, change in expression level, treated vs control): 6.30; Fold Change (gene SGK, Transcript Cluster ID 2975014): 5.38; Fold Change (gene SH3RF2, change in expression level, treated vs control): 6.30; Fold Change (gene SHC1, change in expression level, treated vs control): 6.15; Fold Change (gene SLC3A2, Transcript Cluster ID 3333711): 5.15; Fold Change (gene SLC7A1, change in expression level, treated vs control): 6.07; Fold Change (gene SLC25A32, change in expression level, treated vs control): 12.60; Fold Change (gene SLC30A9, change in expression level, treated vs control): 6.23; Fold Change (gene SLC39A7 // RING1, Transcript Cluster ID 2903470, intron expression, treated vs control): 10.55; Fold Change (gene SMAD3, Transcript Cluster ID 3598959, intron expression, treated vs control): 8.97; Fold Change (gene SMARCD1, change in expression level, treated vs control): 10.90; Fold Change (gene SMC3, change in expression level, treated vs control): 6.28; Fold Change (gene SMG5, Transcript Cluster ID 2438042): 5.14; Fold Change (gene SMG7, intron expression, treated vs control): 7.09; Fold Change (gene SMNDC1, Transcript Cluster ID 3306516, intron expression, treated vs control): 9.38; Fold Change (gene SMU1, change in expression level, treated vs control): 6.06; Fold Change (gene SMURF1, Transcript Cluster ID 3063083): 5.11; Fold Change (gene SMURF2, change in expression level, treated vs control): 13.92; Fold Change (gene SNAG1, Transcript Cluster ID 2809628, intron expression, treated vs control): 9.07; Fold Change (gene SNRPB2, change in expression level, treated vs control): 6.49; Fold Change (gene SNRPB, Transcript Cluster ID 3894995): 5.23; Fold Change (gene SNX5, intron expression, treated vs control): 6.89; Fold Change (gene SON, intron expression, treated vs control): 7.20; Fold Change (gene SP3 // RP11-114G1.1, Transcript Cluster ID 2587520): 5.20; Fold Change (gene SPAG5, Transcript Cluster ID 3750785, intron expression, treated vs control): 10.12; Fold Change (gene SPRED1, intron expression, treated vs control): 6.76; Fold Change (gene SPRY2, intron expression, treated vs control): 7.07; Fold Change (gene SQLE, intron expression, treated vs control): 7.20; Fold Change (gene SR-A1, intron expression, treated vs control): 7.01; Fold Change (gene SRCAP, change in expression level, treated vs control): 11.09; Fold Change (gene SREBF2, Transcript Cluster ID 3947123): 5.12; Fold Change (gene SRP68, intron expression, treated vs control): 7.41; Fold Change (gene SRP72, Transcript Cluster ID 2728224): 5.19; Fold Change (gene SSFA2, change in expression level, treated vs control): 10.95; Fold Change (gene SSNA1, Transcript Cluster ID 3195296): 5.22; Fold Change (gene SSR1, intron expression, treated vs control): 6.94; Fold Change (gene SSR2, intron expression, treated vs control): 6.52; Fold Change (gene STAM, Transcript Cluster ID 3237088, intron expression, treated vs control): 9.11; Fold Change (gene SUPT4H1, change in expression level, treated vs control): 6.19; Fold Change (gene SUPT6H, Transcript Cluster ID 3715703, intron expression, treated vs control): 10.38; Fold Change (gene SUPT7L, Transcript Cluster ID 2546008, intron expression, treated vs control): 9.15; Fold Change (gene SURF6, Transcript Cluster ID 3228621): 5.32; Fold Change (gene SYNCRIP, intron expression, treated vs control): 7.47; Fold Change (gene TACC3, Transcript Cluster ID 2714955, intron expression, treated vs control): 9.12; Fold Change (gene TAF5L // MUC4, Transcript Cluster ID 2459971): 5.18; Fold Change (gene TARDBP, Transcript Cluster ID 2320048, intron expression, treated vs control): 9.82; Fold Change (gene TBRG4, Transcript Cluster ID 3049025, intron expression, treated vs control): 9.01; Fold Change (gene TCEB3, change in expression level, treated vs control): 12.38; Fold Change (gene TCERG1, Transcript Cluster ID 2834093, intron expression, treated vs control): 10.18; Fold Change (gene TERF2, change in expression level, treated vs control): 6.00; Fold Change (gene TERF2IP, Transcript Cluster ID 3669092, intron expression, treated vs control): 10.25; Fold Change (gene TES, Transcript Cluster ID 3020192, intron expression, treated vs control): 10.53
